Earlier results as cited in patent US20100261663A1, “Compositions Containing Harpagoside and Paeoniflorin and Methods for Treatment of Conditions Associated with Pain, Inflammation, Arthritis and Symptoms Thereof” (Restorative Remedies, priority 2009, published 2010).
At least one structure is not confirmed: it was looked up by name or label, or the drawing left a doubt.

Conditions: everted sac, at 60 min

In the case of `C[C@@]12C[C@@]3(O)O[C@@H](O1)[C@]1(COC(=O)c4ccccc4)[C@H]3C[C@@]12O[C@@H]1O[C@H](CO)[C@@H](O)[C@H](O)[C@H]1O` [paeoniflorin, 5β-[(Benzoyloxy)methyl]tetrahydro-5-hydroxy-2-Methyl-2,5-methano-1H-3,4-dioxacyclobuta[cd]pentalen-1α(2H)-yl-β-D-glucopyranoside], the intestinal permeability is listed as 1.9.4%.
